Measured values: paper PMC8748997
These are yes or no findings as the source states them, for the method shown. Binding calls can cover weak binding; strength is not graded here. Tags and fused reporters may be left off the sequences shown. For some assays here: Binding seen in cells or lysates may run through a third protein.

B1: Flag-SOCS1 (protein, UniProt O35716 1-212)
chain: MVARNQVAADNAISPAAEPRRRSEPSSSSSSSSPAAPVRPRPCPAVPAPAPGDTHFRTFRSHSDYRRITRTSALLDACGFYWGPLSVHGAHERLRAEPVGTFLVRDSRQRNCFFALSVKMASGPTSIRVHFQAGRFHLDGSRETFDCLFELLEHYVAAPRRMLGAPLRQRRVRPLQELCRQRIVAAVGRENLARIPLNPVLRDYLSSFPFQI
B2: His-SOCS1 (protein, UniProt O35716 1-212)
chain: B1 chain

Assays:
[1] = target: Akt (mouse (endogenous in 32D clone 3)); test: co-IP; 32D clone 3 cells transfected with Flag-SOCS1 for 30 h; lysates cleared with protein G beads, incubated with 2 ug monoclonal anti-Akt or FLAG antibody or IgG overnight at 4 C; immunoblot
GST-Akt = test: pull-down; GST pull-down: GST-Akt and His-SOCS1 incubated in reaction buffer at 4 C for 1 h, then with GST-beads overnight at 4 C; washed four times with low-salt buffer; immunoblot with anti-His; both purified

| Binder | binding [1] | binding (GST-Akt) |
| --- | --- | --- |
| B1 | binds |  |
| B2 |  | binds |
